{
  "source": "patent US11738092B2",
  "about": "“Methods and compositions for synthesis of therapeutic nanoparticles” (priority 2019, dated 2023)",
  "assay": "Alizarin Red S (ARS) detection assay: number of NPBA per Tf",
  "settings": "CN divided by the known concentration of Tf",
  "data": [
    {"substance": "mono-NPBA-PEG5k-Tf", "values": [
      {"measurement": "NTf = (NPBA per Tf)", "result": 1, "unit": "NPBA per Tf"},
      {"measurement": "NTf = (NPBA per Tf)", "setting": "listed as Mono-NPBA-PEG5k-Tf (+ citrate)", "result": 0.91, "unit": "NPBA per Tf"},
      {"measurement": "NTf = (NPBA per Tf)", "setting": "listed as Mono-NPBA-PEG5k-Tf (- citrate)", "result": 1.05, "unit": "NPBA per Tf"}
    ]}
  ]
}
